The target of one assay is T1, MBP-B55β (Xenopus) (UniProt A1L3L9).
T1 sequence: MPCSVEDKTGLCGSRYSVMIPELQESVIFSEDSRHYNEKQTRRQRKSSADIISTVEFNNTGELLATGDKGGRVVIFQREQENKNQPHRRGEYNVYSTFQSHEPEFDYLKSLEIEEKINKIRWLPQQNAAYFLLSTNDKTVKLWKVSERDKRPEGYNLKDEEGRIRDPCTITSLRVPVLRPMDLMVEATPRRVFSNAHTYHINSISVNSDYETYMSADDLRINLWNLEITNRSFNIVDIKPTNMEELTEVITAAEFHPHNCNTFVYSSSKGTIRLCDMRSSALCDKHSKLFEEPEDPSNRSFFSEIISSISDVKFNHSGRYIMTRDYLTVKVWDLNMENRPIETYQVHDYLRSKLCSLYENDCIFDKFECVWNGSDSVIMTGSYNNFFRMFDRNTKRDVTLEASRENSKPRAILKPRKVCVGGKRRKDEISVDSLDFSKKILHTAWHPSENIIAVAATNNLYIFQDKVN
Put plainly: affinity purification with mass spectrometry; about 10 μg MBP-B55 on amylose beads (20 μl) incubated in interphase Xenopus egg extracts (40 μl), 30 min, room temperature; beads washed, eluted, SDS-PAGE, mass spectrometry; control beads without protein; proteins with a single peptide removed; only the target purified.

Protein sequences, listed by entry. Tags and fused reporters are not part of them.
UniProt P50533: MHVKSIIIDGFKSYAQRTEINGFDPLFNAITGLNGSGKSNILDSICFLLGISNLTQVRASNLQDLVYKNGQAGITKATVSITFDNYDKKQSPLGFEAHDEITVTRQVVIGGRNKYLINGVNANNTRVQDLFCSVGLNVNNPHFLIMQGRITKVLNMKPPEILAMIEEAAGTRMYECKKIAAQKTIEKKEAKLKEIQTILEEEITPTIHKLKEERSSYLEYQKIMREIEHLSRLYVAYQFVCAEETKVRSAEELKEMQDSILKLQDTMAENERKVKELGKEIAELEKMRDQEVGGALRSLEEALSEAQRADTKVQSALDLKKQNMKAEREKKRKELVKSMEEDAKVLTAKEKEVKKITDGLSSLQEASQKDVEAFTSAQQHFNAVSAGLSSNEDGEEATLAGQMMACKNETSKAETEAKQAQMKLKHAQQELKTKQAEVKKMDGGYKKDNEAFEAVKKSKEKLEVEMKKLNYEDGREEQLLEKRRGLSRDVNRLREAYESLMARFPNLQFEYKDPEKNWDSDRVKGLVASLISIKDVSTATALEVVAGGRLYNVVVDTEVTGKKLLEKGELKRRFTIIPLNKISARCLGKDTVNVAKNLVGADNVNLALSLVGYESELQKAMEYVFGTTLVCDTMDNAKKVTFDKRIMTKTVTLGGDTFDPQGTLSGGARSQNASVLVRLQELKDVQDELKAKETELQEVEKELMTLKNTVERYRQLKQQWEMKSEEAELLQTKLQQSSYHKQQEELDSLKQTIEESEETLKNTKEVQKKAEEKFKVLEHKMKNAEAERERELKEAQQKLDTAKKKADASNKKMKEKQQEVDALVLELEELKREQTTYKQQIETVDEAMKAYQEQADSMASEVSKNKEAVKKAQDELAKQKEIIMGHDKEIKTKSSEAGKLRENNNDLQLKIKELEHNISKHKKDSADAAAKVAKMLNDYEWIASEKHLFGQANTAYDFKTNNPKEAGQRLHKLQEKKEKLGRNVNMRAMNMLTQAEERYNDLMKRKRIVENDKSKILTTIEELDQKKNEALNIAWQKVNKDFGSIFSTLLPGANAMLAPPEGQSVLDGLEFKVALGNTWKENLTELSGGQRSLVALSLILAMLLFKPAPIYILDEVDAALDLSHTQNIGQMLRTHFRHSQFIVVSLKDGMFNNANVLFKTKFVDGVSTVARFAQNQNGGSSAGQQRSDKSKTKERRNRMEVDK
UniProt Q01588: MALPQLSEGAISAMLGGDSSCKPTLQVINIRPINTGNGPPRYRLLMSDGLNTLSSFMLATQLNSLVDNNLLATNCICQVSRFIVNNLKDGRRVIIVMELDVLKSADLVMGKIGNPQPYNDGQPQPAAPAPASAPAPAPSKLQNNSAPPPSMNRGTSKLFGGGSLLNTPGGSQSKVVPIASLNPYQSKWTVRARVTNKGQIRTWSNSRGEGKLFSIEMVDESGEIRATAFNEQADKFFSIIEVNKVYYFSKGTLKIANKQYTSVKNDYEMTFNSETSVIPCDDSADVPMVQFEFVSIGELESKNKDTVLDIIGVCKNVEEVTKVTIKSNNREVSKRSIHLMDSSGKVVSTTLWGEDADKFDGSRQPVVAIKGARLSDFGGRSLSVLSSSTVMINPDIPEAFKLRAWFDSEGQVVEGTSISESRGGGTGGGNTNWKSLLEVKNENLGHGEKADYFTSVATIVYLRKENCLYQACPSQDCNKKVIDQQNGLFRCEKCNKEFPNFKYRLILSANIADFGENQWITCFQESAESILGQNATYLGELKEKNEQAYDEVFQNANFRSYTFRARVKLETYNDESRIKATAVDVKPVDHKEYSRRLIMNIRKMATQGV
UniProt Q6NTJ3: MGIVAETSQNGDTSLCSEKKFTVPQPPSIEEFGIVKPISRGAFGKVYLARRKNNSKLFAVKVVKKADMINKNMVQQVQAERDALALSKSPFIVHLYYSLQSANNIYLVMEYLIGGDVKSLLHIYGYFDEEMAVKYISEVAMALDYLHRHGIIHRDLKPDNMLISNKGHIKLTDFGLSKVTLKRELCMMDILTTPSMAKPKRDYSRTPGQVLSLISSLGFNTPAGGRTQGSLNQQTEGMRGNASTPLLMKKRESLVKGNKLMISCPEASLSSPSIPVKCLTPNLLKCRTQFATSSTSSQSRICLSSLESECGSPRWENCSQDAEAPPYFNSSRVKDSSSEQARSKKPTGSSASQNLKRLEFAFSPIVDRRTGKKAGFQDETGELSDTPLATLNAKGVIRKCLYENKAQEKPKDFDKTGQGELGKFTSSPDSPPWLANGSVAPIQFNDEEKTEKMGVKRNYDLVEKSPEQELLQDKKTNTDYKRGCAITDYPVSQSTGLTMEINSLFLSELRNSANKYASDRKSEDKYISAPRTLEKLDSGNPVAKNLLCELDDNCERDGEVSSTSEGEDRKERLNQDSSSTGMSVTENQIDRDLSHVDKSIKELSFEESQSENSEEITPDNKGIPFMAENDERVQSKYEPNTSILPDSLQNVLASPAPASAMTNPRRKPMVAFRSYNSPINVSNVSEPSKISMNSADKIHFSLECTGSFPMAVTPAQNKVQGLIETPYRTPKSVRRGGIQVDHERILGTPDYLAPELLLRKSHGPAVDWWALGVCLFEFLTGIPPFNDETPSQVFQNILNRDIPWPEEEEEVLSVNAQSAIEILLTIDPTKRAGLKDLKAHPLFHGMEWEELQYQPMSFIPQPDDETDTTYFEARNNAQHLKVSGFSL
UniProt P70032: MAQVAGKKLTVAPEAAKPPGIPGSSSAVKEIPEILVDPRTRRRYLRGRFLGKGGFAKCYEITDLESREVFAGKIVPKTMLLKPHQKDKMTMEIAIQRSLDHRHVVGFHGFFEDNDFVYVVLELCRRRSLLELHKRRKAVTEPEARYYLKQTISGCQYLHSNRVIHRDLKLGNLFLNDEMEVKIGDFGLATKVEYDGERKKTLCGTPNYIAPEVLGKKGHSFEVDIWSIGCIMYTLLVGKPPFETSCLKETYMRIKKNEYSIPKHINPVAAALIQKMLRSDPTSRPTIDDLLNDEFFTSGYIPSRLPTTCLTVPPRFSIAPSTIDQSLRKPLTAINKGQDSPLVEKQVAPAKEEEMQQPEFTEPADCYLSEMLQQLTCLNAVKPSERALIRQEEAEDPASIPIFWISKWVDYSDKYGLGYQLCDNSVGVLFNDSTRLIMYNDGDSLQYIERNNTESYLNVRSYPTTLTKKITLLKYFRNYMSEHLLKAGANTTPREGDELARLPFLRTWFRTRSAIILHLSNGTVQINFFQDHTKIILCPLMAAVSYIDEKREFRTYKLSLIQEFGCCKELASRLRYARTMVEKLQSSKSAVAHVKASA

The target of another assay is MBP-B55α (Xenopus) (UniProt Q6IRD3). The assay is described as above.

These are yes or no findings as the source states them, for the method shown. Binding seen in cells or lysates may run through a third protein. Here binding means that the protein was enriched with, or labelled near, the bait; the list need not be complete. For some of these results: A no says only that the protein was not detected with the bait. For some of these results: Where a sequence is shown, tags or fusion partners need not be part of it.

With “Aurora-B (Xenopus (endogenous in egg extracts)) (enzyme)”, in the assay with MBP-B55β (Xenopus), the binding entry is listed as “binds”. For “Condensin subunit Smc2 (from UniProt P50533 1-1203)”, the binding entry in the assay with MBP-B55α (Xenopus) is “no binding”; with MBP-B55β (Xenopus), “binds”. For RPA1 (from UniProt Q01588 1-609) the same measures were “binds” and “binds”. Consider “mitotic kinase Mastl (from UniProt Q6NTJ3 1-887) (enzyme)”, for which the binding result with MBP-B55α (Xenopus) was “binds”.

In the case of “mitotic kinase Plk1 (from UniProt P70032 1-598) (enzyme)”, the binding entry with MBP-B55α (Xenopus) is listed as “binds”.
